This test relates to HCT116 p53KO. In words: Cell growth inhibition (WST-8), HCT116 p53KO.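 Further: cells in 96-well plates exposed to compound for 4 days.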 It counts as cell-based. The following applies: read-out: HCT116 p53KO IC50; tested form: HCl.

SMILES strings stand for the structures. For part of its entries the source gives two or more results. This list holds those alone. The source may hold further records. The records of an entry do not match, cause unknown; they may come from other doses, times, organisms or constructs than stated.

Consider `CC(C)(C)C[C@H]1N(S(=O)(=O)C(F)(F)F)[C@@H](C(=O)NCCN2CCOCC2)[C@H](c2ccc(F)c(Cl)c2)[C@@]12C(=O)Nc1cc(Cl)c(F)cc12`, for which the IC50 is 11.6 µM, 5.45 µM, 8.9 µM.

Broadly, the IC50 is the concentration that gives 50% inhibition.

The values are drawn from patent EP2063887B1, “NEW SMALL MOLECULE INHIBITORS OF MDM2 AND THE USES THEREOF” (priority 2006, dated 2008).
